Experimental data: PubChem BioAssay AID493246 (Drosophila RNAi Screening Center, 2011)

Purpose: 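Identify essential fly genes by loss of cell viability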 (primary screen)
System: Drosophila Kc and S2R+ cells
Knock-down reagent: long dsRNA against Drosophila genes
Detection: 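Cell number per well after knock-down, printed as raw plate values; calls were based on per-plate z-scores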
Direction: Kc cell number and S2R+ cell number: higher = more cells remaining
Active means: 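Active when the per-plate z-score of cell number is 3 or more in the direction of fewer cells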
The deposit covers about 21,000 reagents; below is an unselected part of those that have a named target and a result. Of all reagents, 429 (2%) are marked active. 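Values are raw and not normalised between plates; calls rest on per-plate z-scores that were not deposited.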 Reagents against one gene are numbered here. Not given: the amount of reagent, the time to read-out.

Depletion of Ir60b (Ionotropic receptor 60b) resulted in: Kc cell number, rep 1 = 1.51e6; Kc cell number, rep 2 = 1.54e6; S2R+ cell number, rep 1 = 1.30e6; S2R+ cell number, rep 2 = 1.41e6; inactive.
Against RpL36 (Ribosomal protein L36), the values are Kc cell number, rep 1 = 9.97e5; Kc cell number, rep 2 = 1.06e6; S2R+ cell number, rep 1 = 5.81e5; S2R+ cell number, rep 2 = 6.90e5; active.
With knock-down of Mst27D (Male specific transcript 27D), the record shows Kc cell number, rep 1 = 1.74e6; Kc cell number, rep 2 = 1.74e6; S2R+ cell number, rep 1 = 1.22e6; S2R+ cell number, rep 2 = 1.46e6; inactive.
For CG14563, the values are Kc cell number, rep 1 = 1.61e6; Kc cell number, rep 2 = 2.13e6; S2R+ cell number, rep 1 = 1.32e6; S2R+ cell number, rep 2 = 1.37e6; inactive.
CG10344 scored Kc cell number, rep 1 = 1.64e6; Kc cell number, rep 2 = 1.67e6; S2R+ cell number, rep 1 = 1.29e6; S2R+ cell number, rep 2 = 1.46e6; inactive.
After knock-down of TwdlB (TweedleB), the record shows Kc cell number, rep 1 = 1.49e6; Kc cell number, rep 2 = 1.57e6; S2R+ cell number, rep 1 = 9.48e5; S2R+ cell number, rep 2 = 1.11e6; inactive.
Knock-down of CG17237 gave: Kc cell number, rep 1 = 1.65e6; Kc cell number, rep 2 = 1.66e6; S2R+ cell number, rep 1 = 1.08e6; S2R+ cell number, rep 2 = 1.25e6; inactive.
For CG6602 the deposit lists Kc cell number, rep 1 = 1.57e6; Kc cell number, rep 2 = 1.53e6; S2R+ cell number, rep 1 = 1.25e6; S2R+ cell number, rep 2 = 1.20e6; inactive.
sav (salvador) #1 scored Kc cell number, rep 1 = 1.49e6; Kc cell number, rep 2 = 1.40e6; S2R+ cell number, rep 1 = 1.00e6; S2R+ cell number, rep 2 = 1.05e6; inactive.
Against sav (salvador) #2, the values are Kc cell number, rep 1 = 1.43e6; Kc cell number, rep 2 = 1.39e6; S2R+ cell number, rep 1 = 9.71e5; S2R+ cell number, rep 2 = 1.07e6; inactive.
Against TbCMF46, the entry reads Kc cell number, rep 1 = 1.63e6; Kc cell number, rep 2 = 1.58e6; S2R+ cell number, rep 1 = 1.33e6; S2R+ cell number, rep 2 = 1.45e6; inactive.
Knock-down of GstD2 (Glutathione S transferase D2) resulted in: Kc cell number, rep 1 = 1.43e6; Kc cell number, rep 2 = 1.39e6; S2R+ cell number, rep 1 = 1.25e6; S2R+ cell number, rep 2 = 1.34e6; inactive.
